Measurements published in patent US11414424B2, “Cardiac sarcomere inhibitors” (Cytokinetics, Inc., priority 2018, dated 2022).
At least one structure is not confirmed: it was looked up by name or label, or the drawing left a doubt.

Test system: bovine cardiac myofibrils
Experiment: Myofibril assay: PK/LDH-coupled steady-state ATPase activity of skinned bovine cardiac myofibrils
Assay type: biochemical
Conditions: Ca2+ activating to 75% of maximal rate
Method: To evaluate the effect of compounds on the ATPase activity of full-length cardiac myosin in the context of the native sarcomere, skinned myofibril assays were performed. Bovine cardiac myofibrils were obtained by homogenizing bovine cardiac left ventricular tissue in the presence of a detergent such as triton X-100. Such treatment removes membranes and a majority of the soluble cytoplasmic proteins but leaves intact the cardiac sarcomeric acto-myosin apparatus. Myofibril preparations retain the ability to hydrolyze ATP in a Ca^2+ regulated manner. ATPase activities of such myofibril preparations in the presence and absence of compounds were assayed at Ca^2+ concentrations activating to a defined fraction of the maximal rate (i.e., […], 75%). Small molecule agents were assessed for their ability to inhibit the steady-state ATPase activity of bovine cardiac myofibrils using pyruvate kinase and lactate dehydrogenase (PK/LDH)-coupled enzyme system. This assay regenerates myosin-produced ADP into ATP by oxidizing NADH, producing an absorbance change at 340 nm. Prior to testing small molecule agents, the bovine cardiac myofibrils were assessed for their calcium responsiveness and the calcium concentration that achieves either a 50% (pCa50) or 75% (pCa75) activation of the myofibril system was chosen as the final condition for assessing the inhibitory activity of the small molecule agents. […]

CNC(=O)N1CCC2(C1)C(=O)N(C(C)C)CC(=O)N2Cc1ccc(C(F)(F)F)cc1 (stereo not shown) [Compound 108]
CDMF75 IC15: 9.4 µM
